From patent US8008433B2 (Metabolic Pharmaceutical Limited, priority 2004, dated 2011)
Bridges are numbered along the chain shown (N, C = ends).

Test: peptide made by a vendor
Conditions: whole synthesis

Question: For “H-YLRIVQCRSVEGSCGF-OH (disulfide 7-14; N-terminus and C-terminus assumed; SMILES CC[C@H](C)[C@H](NC(=O)[C@H](CCCNC(=N)N)NC(=O)[C@H](CC(C)C)NC(=O)[C@@H](N)Cc1ccc(O)cc1)C(=O)N[C@H](C(=O)N[C@@H](CCC(N)=O)C(=O)N[C@H]1CSSC[C@@H](C(=O)NCC(=O)N[C@@H](Cc2ccccc2)C(=O)O)NC(=O)[C@H](CO)NC(=O)CNC(=O)[C@H](CCC(=O)O)NC(=O)[C@H](C(C)C)NC(=O)[C@H](CO)NC(=O)[C@H](CCCNC(=N)N)NC1=O)C(C)C)”, which “purity (crude or final not stated)” value is on record?
Answer: 95%
